According to paper PMC12147132 (2025):
The exact form of at least one protein or probe is not confirmed. No signal at the amounts used counts as a negative.

System: adenosine deaminase (ADA)
Test: ITC
Conditions: ADA by itself, no adenosine, ADA possibly denatured (Figure S4); circuits run in 20 mM Tris-HCl, 20 mM magnesium chloride; pH and temperature not shown; commercial protein; folded or branched DNA

ATAACGCATTTTGTTATGCGGAGGAAGGTAT / ATACCTGGGGGAGTATTAACATGTTCCATCTT [L1+L2 (split adenosine aptamer subunits a1, a2)]
binding result: no binding
